Laboratory results from patent US4973576A, “Bisphophonic acid derivatives and pharmaceutical compositions containing the same” (Yamanouchi Pharmaceutical Co., Ltd., priority 1987, dated 1990).
Several values for one entry are separate records, joined by “and”; a condition that tells them apart may be missing. Identical values can stand only once. At least one read-out could not be matched to a standard name with certainty.

Tested on: hypercalcemia induced by administration of parathyroid hormone (PTH)
Test: Inhibitory effect on hypercalcemia induced by PTH in rats (serum Ca++)
Format: in vivo, male Wistar rats
Details: sc, 0.3 mg/kg, 72 hours before PTH injection, mean ± S.E.
Method: Rats of hypercalcemia induced by administration of parathyroid hormone (hereinafter referred to as "PTH") were used, and the decrement of the serum calcium amount by administration of the compound was measured.
30 μg/kg of human 1-34 PTH (manufactured by Peptide Laboratory) which was dissolved in a 0.1% BSA (bovine serum albumin)-containing physiological saline (content of the PTH is 6 μg/ml) was intravenously injected in an amount of 30 μg/kg (5 ml/kg as the solution) to 5-week male Wistar rats which had been fasting for 20 hours. Only 0.1% BSA-containing physiological saline was injected to the normal control group in the same manner. 45 minutes after the PTH injection, the rats were etherized and then subjected to celiotomy, whereby the blood was collected from the abdominal cava with a vacuum blood-collecting tube. The blood collected was immediately centrifuged by 3000 rpm, at 4° C. for 10 minutes to isolate the serum. The ionized calcium (Ca^++) concentration in the serum was immediately measured with a Ca^++ meter (Sera 250, manufactured by Horiba Manufacturing Co.).
The compounds of the present invention were dissolved using sodium hydroxide and hydrochloric acid, in physiological saline (pH 7.4), for subcutaneous administration, in such amounts that the dose amounted to 2 ml/kg, and for oral administration, in distilled water (pH 7.4) so that the dose amounted to 5 ml/kg. […]

CC(C)CCc1cc(NC(P(=O)(O)O)P(=O)(O)O)no1 [Example 25]
Serum Ca++: 1.22 ± 0.01 m mole/liter and 1.43 ± 0.03 m mole/liter
